PMC7736851
Results are given in words; binding and its absence hold for the method and conditions named. Binding seen in cells or lysates may run through a third protein. Some entries that bind do so weakly or less than the wild type. Where a sequence is shown, tags or fusion partners need not be part of it.

Target: T1, MZB1 (mouse (endogenous in K46 B cells)) (UniProt Q9D8I1)
T1 sequence: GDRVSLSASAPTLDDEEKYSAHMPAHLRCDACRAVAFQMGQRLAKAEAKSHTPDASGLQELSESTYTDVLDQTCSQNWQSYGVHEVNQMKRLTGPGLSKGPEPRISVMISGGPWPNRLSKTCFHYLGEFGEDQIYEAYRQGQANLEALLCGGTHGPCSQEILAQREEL
Assay: co-IP; lysates of K46 B cells expressing HA-tagged IFNA2, treated with BD Golgi stop for 5 h; anti-Mzb1 monoclonal antibody or IgG control on Protein-G Dynabeads, 4 h at 4 °C; lysis buffer 20 mM HEPES pH 7.6, 0.1% NP40, 150 mM NaCl, 10% glycerol; immunoblot with MZB1- and HA-specific antibodies

B1: HA-tagged IFNA2 (protein, UniProt P01573 24-190)
chain: CDLPHTYNLRNKRALKVLAQMRRLPFLSCLKDRQDFGFPLEKVDNQQIQKAQAIPVLRDLTQQTLNLFTSKASSAAWNATLLDSFCNDLHQQLNDLQTCLMQQVGVQEPPLTQEDALLAVRKYFHRITVYLREKKHSPCAWEVVRAEVWRALSSSVNLLPRLSEEKE
binding: binds
